From article PMC5507668
Results are given in words; binding and its absence hold for the method and conditions named. In cells and extracts the contact can be indirect. Some entries that bind do so weakly or less than the wild type. For some of these results: Tags and fused reporters may be left off the sequences shown.

Sequences of proteins named here, by UniProt entry; tags and fusion partners are left off.
UniProt P29341: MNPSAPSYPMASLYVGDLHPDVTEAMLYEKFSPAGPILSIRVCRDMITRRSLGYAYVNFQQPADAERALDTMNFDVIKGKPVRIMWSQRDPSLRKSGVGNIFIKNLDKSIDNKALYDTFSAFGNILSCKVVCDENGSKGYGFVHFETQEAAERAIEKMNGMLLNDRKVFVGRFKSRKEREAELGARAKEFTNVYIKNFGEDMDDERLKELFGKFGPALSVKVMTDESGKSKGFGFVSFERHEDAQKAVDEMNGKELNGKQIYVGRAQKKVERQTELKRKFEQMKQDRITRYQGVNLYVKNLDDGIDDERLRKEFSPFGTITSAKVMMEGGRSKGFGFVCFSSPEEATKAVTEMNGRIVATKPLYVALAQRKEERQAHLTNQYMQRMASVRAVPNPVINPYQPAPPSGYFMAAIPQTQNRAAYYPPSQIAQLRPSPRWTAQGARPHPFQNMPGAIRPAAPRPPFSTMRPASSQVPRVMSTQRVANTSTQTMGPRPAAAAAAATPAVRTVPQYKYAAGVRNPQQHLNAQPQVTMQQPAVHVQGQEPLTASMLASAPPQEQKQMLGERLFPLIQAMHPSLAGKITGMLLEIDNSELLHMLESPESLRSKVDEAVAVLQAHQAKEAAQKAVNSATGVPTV

Experiments:
[1] = biological target: T1, FLAG-tagged wild-type Zfp36 (UniProt P22893); experiment: co-IP; 293T cells co-transfected with HA-Pabpc1 and Zfp36-FLAG; IP with an anti-FLAG antibody or IgG in the presence or absence of RNase1 (0.5 U/ul); Western blot
T1 sequence: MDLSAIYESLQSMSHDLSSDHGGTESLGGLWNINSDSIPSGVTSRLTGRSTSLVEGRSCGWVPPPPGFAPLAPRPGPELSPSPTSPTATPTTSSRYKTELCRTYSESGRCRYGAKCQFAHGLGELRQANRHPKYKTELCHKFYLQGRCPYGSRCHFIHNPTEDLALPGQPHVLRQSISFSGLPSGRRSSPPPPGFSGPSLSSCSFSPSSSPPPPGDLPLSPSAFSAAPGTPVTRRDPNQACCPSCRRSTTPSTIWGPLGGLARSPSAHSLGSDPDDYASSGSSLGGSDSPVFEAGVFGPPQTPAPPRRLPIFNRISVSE

[2] = biological target: T2, FLAG-tagged Zfp36-mF (Zfp36 amino acids 39 to 196 with F118N), in 293T cells (UniProt P22893); experiment: co-IP; 293T cells co-transfected with FLAG-tagged Zfp36 constructs and HA-tagged Pabpc1; IP with an anti-FLAG antibody or an IgG, with (or also without) RNaseA; Western blot
T2 sequence: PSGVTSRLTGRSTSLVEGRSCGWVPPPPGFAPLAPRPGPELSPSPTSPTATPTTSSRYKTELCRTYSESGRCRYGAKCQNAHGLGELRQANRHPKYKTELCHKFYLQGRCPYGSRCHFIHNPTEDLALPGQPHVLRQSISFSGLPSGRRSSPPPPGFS

[3] = biological target: T3, FLAG-tagged RNA-binding-deficient Zfp36 mutant Zfp36(F118N) (UniProt P22893); experiment: as above
T3 sequence: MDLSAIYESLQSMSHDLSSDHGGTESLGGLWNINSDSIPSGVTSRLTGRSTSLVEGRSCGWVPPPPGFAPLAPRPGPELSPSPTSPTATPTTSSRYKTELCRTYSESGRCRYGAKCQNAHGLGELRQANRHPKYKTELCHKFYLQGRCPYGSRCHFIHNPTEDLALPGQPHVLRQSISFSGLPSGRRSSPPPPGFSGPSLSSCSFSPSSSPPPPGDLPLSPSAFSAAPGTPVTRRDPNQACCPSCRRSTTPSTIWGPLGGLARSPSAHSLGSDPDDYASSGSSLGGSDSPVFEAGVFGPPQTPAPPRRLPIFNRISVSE

[4] = biological target: T1, FLAG-tagged wild-type Zfp36; experiment: as above
[5] = biological target: T4, endogenous Zfp36 with a knocked-in V5 epitope tag (Zfp36-V5) (mouse (endogenous in BMDMs of the knock-in mouse)) (UniProt P22893); experiment: co-IP; BMDMs from Zfp36-V5 mice transduced with an empty retroviral vector or one expressing Zfp36-mF, LPS for 4 hr; IP with an anti-V5 antibody with RNaseA (200 ng/ml); Western blot of endogenous Pabpc1, quantified by ImageJ
T4 sequence: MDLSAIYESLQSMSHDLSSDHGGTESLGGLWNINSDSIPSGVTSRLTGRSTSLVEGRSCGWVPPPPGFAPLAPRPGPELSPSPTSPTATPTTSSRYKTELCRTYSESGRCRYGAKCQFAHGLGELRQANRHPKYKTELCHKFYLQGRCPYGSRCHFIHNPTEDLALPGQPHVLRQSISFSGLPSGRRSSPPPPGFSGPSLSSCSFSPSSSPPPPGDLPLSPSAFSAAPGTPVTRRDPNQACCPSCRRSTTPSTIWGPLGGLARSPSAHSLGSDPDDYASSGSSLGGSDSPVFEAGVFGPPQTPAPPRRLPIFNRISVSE

[6] = biological target: T4, endogenous Zfp36 with a knocked-in V5 epitope tag (Zfp36-V5) (mouse (endogenous in BMDMs of the knock-in mouse)); experiment: co-IP; IP with an anti-V5 antibody from BMDMs of Zfp36-V5 or wild-type mice, 100 ng/ml LPS for 4 hr, with or without RNaseA; Western blot
[7] = biological target: cytoplasmic poly(A)-binding protein 1 (Pabpc1), endogenous (mouse (endogenous in BMDMs)) (UniProt P29341); experiment: co-IP; BMDMs from Zfp36-V5 mice transduced with an empty retroviral vector or one expressing Zfp36-mF, LPS for 4 hr; IP with an anti-V5 antibody with RNaseA (200 ng/ml); Western blot of endogenous Pabpc1, quantified by ImageJ

## HA-tagged Pabpc1 (from UniProt P29341 1-636)
[1]
  binding: binds
[2]
  binding: binds
[3]
  binding: binds
[4]
  binding: binds

## cytoplasmic poly(A)-binding protein 1 (Pabpc1), endogenous (from UniProt P29341 1-636)
[5]
  binding: binds
[6]
  binding: binds

B1: Zfp36-mF fragment expressed in BMDMs from a retroviral vector (domain or fragment, UniProt P22893 39-196)
chain: PSGVTSRLTGRSTSLVEGRSCGWVPPPPGFAPLAPRPGPELSPSPTSPTATPTTSSRYKTELCRTYSESGRCRYGAKCQNAHGLGELRQANRHPKYKTELCHKFYLQGRCPYGSRCHFIHNPTEDLALPGQPHVLRQSISFSGLPSGRRSSPPPPGFS
[7]
  binding: binds
